16 targets from the supplement of paper PMC10849652 can be followed below.

Protein sequences, listed by entry. Tags and fused reporters are not part of them. Lines headed by an entry give the natural chain unless they say otherwise; changes in a name come on top.
UniProt P48729: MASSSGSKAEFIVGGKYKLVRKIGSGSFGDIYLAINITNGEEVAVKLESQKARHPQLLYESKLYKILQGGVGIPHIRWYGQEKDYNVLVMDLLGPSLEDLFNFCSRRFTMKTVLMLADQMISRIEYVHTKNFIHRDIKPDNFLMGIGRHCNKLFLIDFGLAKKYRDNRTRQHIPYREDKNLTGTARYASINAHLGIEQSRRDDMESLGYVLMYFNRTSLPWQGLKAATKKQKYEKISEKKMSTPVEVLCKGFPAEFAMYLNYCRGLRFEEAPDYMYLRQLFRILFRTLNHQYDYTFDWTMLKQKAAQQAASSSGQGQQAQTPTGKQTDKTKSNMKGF
UniProt Q9H467: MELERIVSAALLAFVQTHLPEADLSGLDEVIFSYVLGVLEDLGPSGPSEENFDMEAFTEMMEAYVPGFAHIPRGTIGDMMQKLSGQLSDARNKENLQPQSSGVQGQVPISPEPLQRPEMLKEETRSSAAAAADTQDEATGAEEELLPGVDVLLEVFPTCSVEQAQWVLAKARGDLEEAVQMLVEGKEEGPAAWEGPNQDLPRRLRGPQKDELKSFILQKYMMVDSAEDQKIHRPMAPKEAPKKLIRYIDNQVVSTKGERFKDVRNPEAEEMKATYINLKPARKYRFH
UniProt Q93034, whole entry, looked up: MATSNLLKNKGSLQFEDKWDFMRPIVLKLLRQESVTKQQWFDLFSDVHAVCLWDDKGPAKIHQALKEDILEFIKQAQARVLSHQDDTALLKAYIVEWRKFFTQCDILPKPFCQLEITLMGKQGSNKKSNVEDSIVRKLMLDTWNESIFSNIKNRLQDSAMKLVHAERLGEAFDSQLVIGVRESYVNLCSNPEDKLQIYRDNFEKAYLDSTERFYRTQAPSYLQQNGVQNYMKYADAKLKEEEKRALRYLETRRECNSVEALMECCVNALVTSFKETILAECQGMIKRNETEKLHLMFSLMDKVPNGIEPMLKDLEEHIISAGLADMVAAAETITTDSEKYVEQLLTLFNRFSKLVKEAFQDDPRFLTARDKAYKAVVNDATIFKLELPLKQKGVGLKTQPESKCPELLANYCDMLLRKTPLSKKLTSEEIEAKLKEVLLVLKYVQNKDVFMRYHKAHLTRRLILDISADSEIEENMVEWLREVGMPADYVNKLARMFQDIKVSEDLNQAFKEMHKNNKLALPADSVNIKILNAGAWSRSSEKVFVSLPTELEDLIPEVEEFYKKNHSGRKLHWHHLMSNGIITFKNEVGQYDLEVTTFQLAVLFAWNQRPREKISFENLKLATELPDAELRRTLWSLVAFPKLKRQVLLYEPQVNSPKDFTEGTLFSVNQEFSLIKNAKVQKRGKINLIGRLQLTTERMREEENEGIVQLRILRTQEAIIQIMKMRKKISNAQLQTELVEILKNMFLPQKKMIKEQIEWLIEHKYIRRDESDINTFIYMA
UniProt Q6UXH1: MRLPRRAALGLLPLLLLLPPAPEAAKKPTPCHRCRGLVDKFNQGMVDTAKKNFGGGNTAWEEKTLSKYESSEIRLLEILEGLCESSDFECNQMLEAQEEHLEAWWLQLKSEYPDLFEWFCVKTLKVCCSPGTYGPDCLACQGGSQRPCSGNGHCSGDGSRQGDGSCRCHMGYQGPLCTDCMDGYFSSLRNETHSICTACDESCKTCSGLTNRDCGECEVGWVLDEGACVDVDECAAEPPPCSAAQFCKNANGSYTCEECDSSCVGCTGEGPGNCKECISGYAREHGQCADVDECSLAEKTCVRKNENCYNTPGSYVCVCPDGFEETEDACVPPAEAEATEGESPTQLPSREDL
UniProt O75629: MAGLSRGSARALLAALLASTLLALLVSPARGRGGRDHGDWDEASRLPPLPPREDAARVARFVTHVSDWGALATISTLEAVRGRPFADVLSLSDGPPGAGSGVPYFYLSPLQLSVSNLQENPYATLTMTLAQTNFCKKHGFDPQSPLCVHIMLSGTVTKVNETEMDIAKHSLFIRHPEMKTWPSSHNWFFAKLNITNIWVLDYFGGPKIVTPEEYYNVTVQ
UniProt O95825: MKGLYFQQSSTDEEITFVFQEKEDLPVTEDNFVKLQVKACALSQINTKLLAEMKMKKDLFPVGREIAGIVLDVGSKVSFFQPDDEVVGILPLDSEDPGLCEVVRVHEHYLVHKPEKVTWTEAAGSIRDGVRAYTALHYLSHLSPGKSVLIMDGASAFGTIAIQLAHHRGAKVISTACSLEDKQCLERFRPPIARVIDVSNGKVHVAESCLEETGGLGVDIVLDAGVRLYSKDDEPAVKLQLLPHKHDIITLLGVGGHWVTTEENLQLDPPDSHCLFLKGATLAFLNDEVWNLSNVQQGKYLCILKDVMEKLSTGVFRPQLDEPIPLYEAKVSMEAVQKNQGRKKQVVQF
UniProt Q13616, whole entry, looked up: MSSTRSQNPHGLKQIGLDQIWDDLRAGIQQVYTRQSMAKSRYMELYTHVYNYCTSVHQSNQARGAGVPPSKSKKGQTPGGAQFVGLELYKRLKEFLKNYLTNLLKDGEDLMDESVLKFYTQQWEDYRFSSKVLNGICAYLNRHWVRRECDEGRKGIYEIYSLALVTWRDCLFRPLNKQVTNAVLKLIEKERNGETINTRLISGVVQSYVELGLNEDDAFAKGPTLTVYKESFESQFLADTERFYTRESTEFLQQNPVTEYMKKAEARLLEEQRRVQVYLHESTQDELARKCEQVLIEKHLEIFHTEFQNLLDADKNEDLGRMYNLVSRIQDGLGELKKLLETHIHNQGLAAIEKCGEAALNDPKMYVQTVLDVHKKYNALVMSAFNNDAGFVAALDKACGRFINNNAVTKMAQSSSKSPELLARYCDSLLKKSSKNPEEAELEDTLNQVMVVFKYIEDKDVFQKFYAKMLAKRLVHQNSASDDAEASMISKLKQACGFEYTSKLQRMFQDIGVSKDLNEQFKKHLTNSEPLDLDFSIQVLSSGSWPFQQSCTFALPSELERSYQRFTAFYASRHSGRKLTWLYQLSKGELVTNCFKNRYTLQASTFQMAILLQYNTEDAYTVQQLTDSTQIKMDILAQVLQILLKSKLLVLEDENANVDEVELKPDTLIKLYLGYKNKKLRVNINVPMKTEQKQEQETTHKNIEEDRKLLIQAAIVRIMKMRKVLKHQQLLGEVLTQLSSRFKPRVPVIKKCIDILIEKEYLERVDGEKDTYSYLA
UniProt O60888: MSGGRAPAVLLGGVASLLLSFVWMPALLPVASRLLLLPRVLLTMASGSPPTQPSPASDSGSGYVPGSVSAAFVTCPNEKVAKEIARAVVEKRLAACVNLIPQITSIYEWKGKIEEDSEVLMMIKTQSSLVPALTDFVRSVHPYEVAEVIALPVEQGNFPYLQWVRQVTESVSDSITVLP
UniProt Q6UUV7: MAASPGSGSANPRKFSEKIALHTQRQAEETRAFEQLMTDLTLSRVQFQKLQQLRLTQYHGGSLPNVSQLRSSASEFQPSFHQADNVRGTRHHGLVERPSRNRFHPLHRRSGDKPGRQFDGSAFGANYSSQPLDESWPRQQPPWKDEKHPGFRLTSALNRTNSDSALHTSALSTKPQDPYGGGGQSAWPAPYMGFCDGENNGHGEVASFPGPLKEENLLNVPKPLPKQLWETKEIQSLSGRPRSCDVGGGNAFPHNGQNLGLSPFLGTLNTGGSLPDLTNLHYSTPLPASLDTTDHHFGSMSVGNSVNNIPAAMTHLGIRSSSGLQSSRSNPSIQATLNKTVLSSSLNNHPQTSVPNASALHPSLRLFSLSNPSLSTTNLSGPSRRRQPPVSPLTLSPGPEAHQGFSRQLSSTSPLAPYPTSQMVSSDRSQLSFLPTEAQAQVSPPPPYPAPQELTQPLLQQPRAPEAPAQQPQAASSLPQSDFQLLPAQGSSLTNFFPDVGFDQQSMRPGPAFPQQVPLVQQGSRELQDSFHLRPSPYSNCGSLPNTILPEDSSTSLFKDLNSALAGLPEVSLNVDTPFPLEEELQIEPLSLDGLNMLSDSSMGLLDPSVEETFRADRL
UniProt Q7Z7A3: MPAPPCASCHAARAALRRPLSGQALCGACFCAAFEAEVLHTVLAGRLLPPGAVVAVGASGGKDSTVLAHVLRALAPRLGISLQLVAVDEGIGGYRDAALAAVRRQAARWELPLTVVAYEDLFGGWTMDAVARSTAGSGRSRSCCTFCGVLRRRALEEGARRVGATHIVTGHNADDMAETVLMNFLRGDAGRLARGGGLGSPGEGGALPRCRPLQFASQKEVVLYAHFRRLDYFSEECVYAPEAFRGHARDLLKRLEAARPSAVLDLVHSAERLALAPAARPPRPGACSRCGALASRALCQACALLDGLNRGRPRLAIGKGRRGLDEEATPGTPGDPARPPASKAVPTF
UniProt P54108: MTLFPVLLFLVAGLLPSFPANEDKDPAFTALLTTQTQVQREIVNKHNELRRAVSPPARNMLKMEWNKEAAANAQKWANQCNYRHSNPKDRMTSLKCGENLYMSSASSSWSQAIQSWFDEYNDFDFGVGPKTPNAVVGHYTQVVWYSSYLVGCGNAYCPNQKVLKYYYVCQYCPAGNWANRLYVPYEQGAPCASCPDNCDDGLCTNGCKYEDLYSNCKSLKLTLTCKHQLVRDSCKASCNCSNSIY
UniProt Q8NI51: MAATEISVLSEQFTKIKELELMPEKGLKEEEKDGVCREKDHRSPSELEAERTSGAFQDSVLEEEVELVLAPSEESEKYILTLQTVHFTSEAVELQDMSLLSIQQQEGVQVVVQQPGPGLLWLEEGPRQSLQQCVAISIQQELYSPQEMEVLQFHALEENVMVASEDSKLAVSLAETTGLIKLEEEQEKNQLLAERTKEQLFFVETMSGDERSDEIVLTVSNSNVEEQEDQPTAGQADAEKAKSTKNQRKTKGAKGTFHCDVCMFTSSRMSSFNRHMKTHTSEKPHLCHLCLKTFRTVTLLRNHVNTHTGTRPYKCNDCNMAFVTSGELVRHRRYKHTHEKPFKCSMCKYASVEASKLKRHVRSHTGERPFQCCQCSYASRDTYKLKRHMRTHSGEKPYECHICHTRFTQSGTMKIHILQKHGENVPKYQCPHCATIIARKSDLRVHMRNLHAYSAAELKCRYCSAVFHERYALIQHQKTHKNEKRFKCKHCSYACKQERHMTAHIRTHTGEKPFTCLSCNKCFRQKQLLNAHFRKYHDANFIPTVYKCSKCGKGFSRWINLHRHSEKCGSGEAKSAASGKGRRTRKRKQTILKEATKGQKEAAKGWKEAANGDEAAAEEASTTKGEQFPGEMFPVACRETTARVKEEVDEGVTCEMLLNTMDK
UniProt P00167, whole entry, looked up: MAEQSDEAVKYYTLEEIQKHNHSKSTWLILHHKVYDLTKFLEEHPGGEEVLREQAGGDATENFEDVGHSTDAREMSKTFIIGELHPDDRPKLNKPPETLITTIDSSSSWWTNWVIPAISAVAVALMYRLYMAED
UniProt Q9Y600: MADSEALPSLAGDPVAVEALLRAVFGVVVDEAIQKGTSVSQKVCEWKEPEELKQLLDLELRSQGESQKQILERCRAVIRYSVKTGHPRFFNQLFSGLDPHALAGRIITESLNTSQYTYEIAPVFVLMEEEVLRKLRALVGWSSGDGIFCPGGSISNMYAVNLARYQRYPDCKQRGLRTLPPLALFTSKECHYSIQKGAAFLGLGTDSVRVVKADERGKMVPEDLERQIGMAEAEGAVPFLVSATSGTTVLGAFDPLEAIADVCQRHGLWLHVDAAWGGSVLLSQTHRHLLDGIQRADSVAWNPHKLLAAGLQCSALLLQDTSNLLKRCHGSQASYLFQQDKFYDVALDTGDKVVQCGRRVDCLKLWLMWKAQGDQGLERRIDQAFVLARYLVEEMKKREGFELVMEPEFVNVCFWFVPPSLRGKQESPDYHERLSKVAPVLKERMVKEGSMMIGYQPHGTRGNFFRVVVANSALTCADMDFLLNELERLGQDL
UniProt P01037: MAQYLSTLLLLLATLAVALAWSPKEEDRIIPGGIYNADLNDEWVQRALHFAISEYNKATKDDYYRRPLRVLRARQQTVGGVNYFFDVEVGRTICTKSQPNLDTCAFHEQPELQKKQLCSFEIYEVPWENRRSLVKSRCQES

This is one part of the list.

What all share (experiment): log2 fold change, soluble protein after heating vs DMSO (PISA); higher = thermal stabilisation; K562 lysate, 10 uM; active = over 0.2 and 3.5 SD of the protein, either way, in both replicates (recomputed)
Compound in assay [1]: NCC(=O)Nc1ccc(-n2nc(C(F)(F)F)cc2-c2ccc3c(ccc4ccccc43)c2)cc1
A digest of the protocol:
(§1)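 K562 pellets were dounce-homogenised in PBS pH 7.4 containing 1 mM MgCl2, and the crude extract, at 1 mg/mL protein, was exposed to 10 μM compound for 30 min. Aliquots were heated for 3 min across 48°C-58°C, pooled, brought to 0.5% NP-40 at 4°C and spun at 21,000xg for 90 min, with the supernatant taken as soluble protein. TMTpro 16plex LC-MS/MS with equalised channel sums quantified that protein. Values are log-two fold changes in thermal stability relative to solvent controls, taken from duplicates.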

Compound in the next assay: O=C(CCCCCCC(=O)Nc1ccccc1)NO [vorinostat]
A digest of the protocol: as §1

Compound in the next assay: O=C(O)c1ccc2c(c1)nc(Nc1cccc(Cl)c1)c1ccncc12 [silmitasertib]
A digest of the protocol:
as §1

Compound in assay [2]: O=C1NC(=O)C(c2cnc3ccccn23)=C1c1cn2c3c(cc(F)cc13)CN(C(=O)N1CCCCC1)CC2
A digest of the protocol:
as §1

Compound in the next assay: c1cn2cc(-c3ccc4cn[nH]c4c3)nc(Nc3ccc(N4CCOCC4)cc3)c2n1 [entospletinib]
A digest of the protocol:
as §1

For CSNK1A1 (UniProt P48729), the log2 fold change in assay [1] was inactive: 0.001; with vorinostat, active: -0.276; in the assay with silmitasertib it was inactive: 0.088; in assay [2], inactive: -0.044; with entospletinib it was inactive: 0.017.
The corresponding values for CUEDC2 (UniProt Q9H467) are inactive: -0.01, inactive: 0.151, inactive: -0.012, inactive: 0.003 and inactive: 0.066.
CUL5 (UniProt Q93034): the log2 fold change in assay [1] was inactive: 0.008; with vorinostat it was inactive: 0.019; with silmitasertib, inactive: 0.003; in assay [2], inactive: -0.005; with entospletinib, inactive: 0.004.
In the case of CYB5R2 (UniProt Q6BCY4), the log2 fold change in assay [1] is inactive: 0.01; in the assay with vorinostat, inactive: 0.127; with silmitasertib, inactive: -0.005; in assay [2] it was inactive: -0.025; in the assay with entospletinib, inactive: -0.036.
The corresponding values for CRELD2 isoform 5 (UniProt Q6UXH1) are inactive: 0.016, inactive: -0.093, inactive: -0.218, inactive: -0.06 and inactive: -0.018.
On to CREG1 (UniProt O75629), for which the log2 fold change is inactive: -0.04 in assay [1]; inactive: 0.115 in the assay with vorinostat; inactive: -0.139 with silmitasertib; inactive: 0.059 in assay [2]; inactive: -0.004 with entospletinib.
As for CRYZL1 (UniProt O95825), the log2 fold change in assay [1] was inactive: 0.008; in the assay with vorinostat it was inactive: 0.128; in the assay with silmitasertib, inactive: -0.026; in assay [2] it was inactive: -0.01; in the assay with entospletinib it was inactive: -0.014.
As for CUL1 (UniProt Q13616), the log2 fold change was inactive: 0.001 in assay [1]; inactive: 0.072 with vorinostat; inactive: 0.006 with silmitasertib; inactive: -0.007 in assay [2]; inactive: 0.009 in the assay with entospletinib.
The corresponding values for CUTA isoform 2 (UniProt O60888) are inactive: 0.022, inactive: 0.093, inactive: -0.075, inactive: 0.048 and inactive: 0.001.
Turning to CRTC3 (UniProt Q6UUV7), the log2 fold change is inactive: 0.01 in assay [1]; inactive: -0.018 with vorinostat; inactive: -0.034 with silmitasertib; inactive: -0.064 in assay [2]; inactive: -0.002 with entospletinib.
Take CTU1 (UniProt Q7Z7A3): the log2 fold change in assay [1] was inactive: -0.02; with vorinostat, inactive: -0.116; with silmitasertib, inactive: -0.028; in assay [2], inactive: -0.019; in the assay with entospletinib it was inactive: -0.034.
As for CRISP3 isoform 3 (UniProt P54108), the log2 fold change was inactive: 0.229 in the assay with vorinostat and inactive: -0.277 in the assay with silmitasertib.
On to CTCFL isoform 7 (UniProt Q8NI51), for which the log2 fold change in assay [2] was inactive: 0.006; with entospletinib, inactive: -0.179.
With CYB5A (UniProt P00167), the log2 fold change with vorinostat is inactive: 0.134; in the assay with silmitasertib it was inactive: -0.07; in assay [2], inactive: 0.013; in the assay with entospletinib, inactive: -0.086.
With CSAD isoform 3 (UniProt Q9Y600), the figures for the log2 fold change (with vorinostat; in the assay with silmitasertib; in assay [2]) were inactive: 0.031, inactive: 0.075 and inactive: 0.039, respectively.
Take CST1 (UniProt P01037): the log2 fold change with vorinostat was inactive: 0.059; with silmitasertib, inactive: -0.214; in assay [2], inactive: 0.117; with entospletinib, inactive: -0.157.
